No constants are given. Whether binding was seen depends on the method and setting. For some of these results: In cells and extracts the contact can be indirect. Some results given as binding are weak or reduced against the parent protein; the word gives no strength.
What was measured:
[1] = biological target: programmed death-ligand 1 (PD-L1) (human (endogenous in GBM cell lines T98/U87)) (UniProt Q9NZQ7); test: co-IP; GBM cell lysates incubated overnight at 4 °C with specific primary antibodies and Protein A + G magnetic beads; immunoprecipitates analysed by Western blot; endogenous proteins
[2] = biological target: glycoprotein 130 (GP130) (human (endogenous in GBM cell lines T98/U87)) (UniProt P40189); test: cellular thermal shift assay (CETSA); GBM cells incubated with rPD-L1 or vehicle at 25 °C for 30 min, suspended in 1x PBS, heated 3 min at five temperatures from 45 °C to 65 °C, freeze-thaw lysis, centrifuged; GP130 detected by Western blot; only the binder purified
[3] = biological target: glycoprotein 130 (GP130) (human (endogenous in GBM cell lines T98/U87)) (UniProt P40189); test: co-IP; GBM cell lysates incubated overnight at 4 °C with specific primary antibodies and Protein A + G magnetic beads; immunoprecipitates analysed by Western blot; endogenous proteins

Sequences of proteins named here, by UniProt entry; tags and fusion partners are left off. A change or cut given only in a name is not applied to a line headed by its entry. Residues count along the entry.
UniProt Q9NZQ7: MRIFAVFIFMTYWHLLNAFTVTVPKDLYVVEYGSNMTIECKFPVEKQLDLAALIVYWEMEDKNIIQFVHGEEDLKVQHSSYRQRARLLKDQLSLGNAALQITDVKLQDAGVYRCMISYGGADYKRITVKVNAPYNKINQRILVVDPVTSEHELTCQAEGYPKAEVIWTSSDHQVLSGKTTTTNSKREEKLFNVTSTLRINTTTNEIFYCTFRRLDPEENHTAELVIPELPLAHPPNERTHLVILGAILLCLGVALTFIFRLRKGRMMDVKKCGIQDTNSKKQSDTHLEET
UniProt P40189, residues 23-918: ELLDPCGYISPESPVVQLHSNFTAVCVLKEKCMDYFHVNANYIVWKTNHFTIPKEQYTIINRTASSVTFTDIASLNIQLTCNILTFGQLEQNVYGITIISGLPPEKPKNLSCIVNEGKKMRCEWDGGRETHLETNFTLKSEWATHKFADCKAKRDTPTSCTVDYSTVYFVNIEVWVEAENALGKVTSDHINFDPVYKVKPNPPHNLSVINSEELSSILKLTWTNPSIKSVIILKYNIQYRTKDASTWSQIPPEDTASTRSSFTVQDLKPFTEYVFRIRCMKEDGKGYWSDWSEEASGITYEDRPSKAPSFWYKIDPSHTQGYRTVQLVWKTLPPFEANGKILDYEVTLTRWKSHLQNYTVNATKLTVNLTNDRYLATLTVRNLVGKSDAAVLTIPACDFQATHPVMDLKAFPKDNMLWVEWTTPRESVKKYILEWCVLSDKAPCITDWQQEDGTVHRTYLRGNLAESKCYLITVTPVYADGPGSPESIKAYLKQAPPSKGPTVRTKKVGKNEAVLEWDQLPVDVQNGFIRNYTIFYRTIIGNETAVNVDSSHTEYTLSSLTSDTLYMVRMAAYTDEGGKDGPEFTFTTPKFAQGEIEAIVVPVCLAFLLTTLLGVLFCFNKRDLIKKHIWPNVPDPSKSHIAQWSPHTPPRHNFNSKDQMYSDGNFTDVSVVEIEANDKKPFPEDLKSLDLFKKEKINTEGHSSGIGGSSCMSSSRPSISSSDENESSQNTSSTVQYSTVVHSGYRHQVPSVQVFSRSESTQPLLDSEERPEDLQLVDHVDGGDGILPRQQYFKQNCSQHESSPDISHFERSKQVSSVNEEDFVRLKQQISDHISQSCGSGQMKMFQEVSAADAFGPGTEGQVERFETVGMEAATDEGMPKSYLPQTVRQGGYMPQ
UniProt Q15116, residues 25-288: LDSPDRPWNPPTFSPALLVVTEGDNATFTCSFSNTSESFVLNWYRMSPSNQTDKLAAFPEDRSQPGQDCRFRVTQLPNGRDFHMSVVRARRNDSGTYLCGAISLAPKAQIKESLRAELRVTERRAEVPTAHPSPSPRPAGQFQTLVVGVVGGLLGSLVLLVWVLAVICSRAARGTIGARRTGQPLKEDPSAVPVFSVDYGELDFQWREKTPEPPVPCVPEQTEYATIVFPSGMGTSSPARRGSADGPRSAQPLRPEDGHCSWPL

| Substance | binding [3] | further results |
| --- | --- | --- |
| glycoprotein 130 (GP130) (from UniProt P40189 23-918) (receptor) |  | binding [1]: binds |
| recombinant human PD-L1 (rPD-L1) (from UniProt Q9NZQ7 19-238) (ligand) |  | binding [2]: binds |
| programmed death-1 (PD-1) (from UniProt Q15116 25-288) (receptor) | binds |  |
| programmed death-ligand 1 (PD-L1) (from UniProt Q9NZQ7 19-290) | binds |  |

Source: publication PMC12508128
